{"source": "PubChem BioAssay AID743454 (Peter MacCallum Cancer Centre, 2014)", "screen": "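Search for knock-downs that restore vorinostat killing in resistant colon cancer cells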 (primary screen)", "cell system": "human HCT116-VR colon cancer cells, selected for vorinostat resistance", "reagents": "siRNA pool against human genes, 40 nM siRNA pool", "timing": "vorinostat for 24 h, read-out about 72 h after transfection", "treatment": "vorinostat at 2.5 µM final", "measurement": "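Cell viability by CellTiter-Fluor and caspase 3/7 activity by luminescence, each scaled to mock wells per plate, duplicates averaged, then robust z-scored over all plates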", "scale": "viability robust z-score: higher = more viable cells than screen typical; caspase robust z-score: higher = more caspase 3/7 activity than screen typical", "call rule": "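a knock-down is a hit when classed RV1 or RV2 for lowered viability, or CA1 or CA2 for caspase activation; those lethal without drug were dropped; hits were retested singly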", "note": "Shown is a random part of about 18,000 deposited reagents. Over the whole deposit, 450 (2.5%) were called active. 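Single biological run; no consistent viability z cut-off exists, so the class columns, not z-scores, define the calls.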"}
{"target": "SPC25 (GeneID 57405)", "viability hit class": "no change", "caspase hit class": "no change", "viability robust z-score": -0.46, "caspase robust z-score": 0.96, "activity call": "inactive"}
{"target": "FSHB (GeneID 2488)", "viability hit class": "no change", "caspase hit class": "no change", "viability robust z-score": 0.02, "caspase robust z-score": 0.9, "activity call": "inactive"}
{"target": "R3HDML (GeneID 140902)", "viability hit class": "no change", "caspase hit class": "no change", "viability robust z-score": 0.84, "caspase robust z-score": -0.14, "activity call": "inactive"}
{"target": "MYO3B (GeneID 140469)", "viability hit class": "no change", "caspase hit class": "no change", "viability robust z-score": 0.21, "caspase robust z-score": -1.04, "activity call": "inactive"}
{"target": "DECR2 (GeneID 26063)", "viability hit class": "no change", "caspase hit class": "no change", "viability robust z-score": 0.8, "caspase robust z-score": 1.21, "activity call": "inactive"}
{"target": "CXXC4 (GeneID 80319)", "viability hit class": "no change", "caspase hit class": "no change", "viability robust z-score": 0, "caspase robust z-score": -0.48, "activity call": "inactive"}
{"target": "C6orf89 (GeneID 221477)", "viability hit class": "no change", "caspase hit class": "no change", "viability robust z-score": 1, "caspase robust z-score": -0.66, "activity call": "inactive"}
{"target": "RPGR (GeneID 6103)", "viability hit class": "no change", "caspase hit class": "no change", "viability robust z-score": -0.24, "caspase robust z-score": -0.6, "activity call": "inactive"}
{"target": "LRRC14 (GeneID 9684)", "viability hit class": "RV2 (reduced viability)", "caspase hit class": "no change", "viability robust z-score": -3.49, "caspase robust z-score": 3.08, "activity call": "active"}
{"target": "TAF5L (GeneID 27097)", "viability hit class": "no change", "caspase hit class": "no change", "viability robust z-score": 0.26, "caspase robust z-score": -0.42, "activity call": "inactive"}
{"target": "RHD (GeneID 6007)", "viability hit class": "no change", "caspase hit class": "no change", "viability robust z-score": 0.55, "caspase robust z-score": 0.08, "activity call": "inactive"}
{"target": "AP5M1 (GeneID 55745)", "viability hit class": "no change", "caspase hit class": "no change", "viability robust z-score": 0.78, "caspase robust z-score": -0.84, "activity call": "inactive"}

2 consecutive records already listed, for reference:
{"target": "DECR2 (GeneID 26063)", "viability hit class": "no change", "caspase hit class": "no change", "viability robust z-score": 0.8, "caspase robust z-score": 1.21, "activity call": "inactive"}
{"target": "CXXC4 (GeneID 80319)", "viability hit class": "no change", "caspase hit class": "no change", "viability robust z-score": 0, "caspase robust z-score": -0.48, "activity call": "inactive"}
